We go through 1 substance from publication PMC12744750 (Plant Communications, 2025).

The test system of the series is root epidermal cells, endomembrane markers. Kind of series: Subcellular localization by confocal microscopy. It is filed as cell-based, Arabidopsis. The text has this: proPLS::PLS:GFP comprises a 1.5-kb PLS promoter sequence ([Casson et al., 2002]) fused to the PLS open reading frame in pMDC107 (obtained from Prof. P.J. Hussey, Durham University) as a C-terminal GFP translational fusion. The PLS ORF with its 1.5-kb promoter was amplified from the TOPO 2.1 vector, which contained the PLS gene sequence with promoter ([Casson et al., 2002]); the primers used for cloning are listed in supplemental Table 9. pls mutant plants were transformed using the method of [Clough and Bent (1998)]. proPLS::GFP plants were generated using the 1.5-kb PLS promoter ([Casson et al., 2002]) fused to GFP in a wild-type background. p35S::GFP seedlings were obtained from Dr. Piers Hemsley, Durham University. […] Seedlings were scanned to create a digital image, and root lengths of the seedlings were measured using ImageJ. […]
CSLM images for propidium iodide and GFP were obtained using a Leica SP5 TCS confocal microscope as described previously ([Rowe et al., 2016]). proPLS::PLS:GFP, proPLS::GFP, and pro35S::GFP seedlings were grown for 7 days on Phytagel ½ MS10 medium before ∼25 mm of the root tip was removed and mounted in dH2O prior to imaging. […] For standard photomultiplier tubes, a laser power of 21% and a smart gain of 800–1000 mV were used, depending on the intensity of the fluorescence. […]

For the substance “PLS:GFP: fusion protein of PLS with C-terminal GFP (MKPRLCFNFRRRSISPCYISISYLLVAKLFKLFKIH; left off: GFP, C-terminal, kept)”, the “nuclear and cytoplasmic localization” value (proPLS::PLS:GFP plants) was “appeared to localize to the nucleus and cytoplasm”. Moreover, the “localization to Golgi” value (trans-Golgi ST1 mCherry marker) is “did not localize to the Golgi”.
